For 2 substances, binding results are on record in publication PMC9618025.

Chains of the proteins cited; added tags and fusions are not shown. Lines headed by an entry give the natural chain unless they say otherwise; changes in a name come on top. Residues count along the entry.
UniProt Q13586, residues 23-685: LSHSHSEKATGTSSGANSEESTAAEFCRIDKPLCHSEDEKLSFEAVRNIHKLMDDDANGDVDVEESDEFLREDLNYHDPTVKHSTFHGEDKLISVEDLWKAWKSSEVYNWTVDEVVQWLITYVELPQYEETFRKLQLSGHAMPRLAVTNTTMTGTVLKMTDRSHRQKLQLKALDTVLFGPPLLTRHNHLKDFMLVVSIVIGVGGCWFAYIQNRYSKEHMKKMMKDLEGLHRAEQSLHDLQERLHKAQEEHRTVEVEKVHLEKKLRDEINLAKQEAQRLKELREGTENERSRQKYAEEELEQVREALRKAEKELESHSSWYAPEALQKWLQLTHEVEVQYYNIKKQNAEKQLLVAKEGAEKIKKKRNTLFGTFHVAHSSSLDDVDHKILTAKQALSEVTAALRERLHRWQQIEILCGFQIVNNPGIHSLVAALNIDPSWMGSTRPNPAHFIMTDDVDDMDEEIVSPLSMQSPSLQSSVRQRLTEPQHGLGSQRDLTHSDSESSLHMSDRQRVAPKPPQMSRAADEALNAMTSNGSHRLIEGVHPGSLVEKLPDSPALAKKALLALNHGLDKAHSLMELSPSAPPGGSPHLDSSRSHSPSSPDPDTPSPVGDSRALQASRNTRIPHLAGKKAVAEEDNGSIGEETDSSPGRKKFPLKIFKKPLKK
UniProt P48995-2: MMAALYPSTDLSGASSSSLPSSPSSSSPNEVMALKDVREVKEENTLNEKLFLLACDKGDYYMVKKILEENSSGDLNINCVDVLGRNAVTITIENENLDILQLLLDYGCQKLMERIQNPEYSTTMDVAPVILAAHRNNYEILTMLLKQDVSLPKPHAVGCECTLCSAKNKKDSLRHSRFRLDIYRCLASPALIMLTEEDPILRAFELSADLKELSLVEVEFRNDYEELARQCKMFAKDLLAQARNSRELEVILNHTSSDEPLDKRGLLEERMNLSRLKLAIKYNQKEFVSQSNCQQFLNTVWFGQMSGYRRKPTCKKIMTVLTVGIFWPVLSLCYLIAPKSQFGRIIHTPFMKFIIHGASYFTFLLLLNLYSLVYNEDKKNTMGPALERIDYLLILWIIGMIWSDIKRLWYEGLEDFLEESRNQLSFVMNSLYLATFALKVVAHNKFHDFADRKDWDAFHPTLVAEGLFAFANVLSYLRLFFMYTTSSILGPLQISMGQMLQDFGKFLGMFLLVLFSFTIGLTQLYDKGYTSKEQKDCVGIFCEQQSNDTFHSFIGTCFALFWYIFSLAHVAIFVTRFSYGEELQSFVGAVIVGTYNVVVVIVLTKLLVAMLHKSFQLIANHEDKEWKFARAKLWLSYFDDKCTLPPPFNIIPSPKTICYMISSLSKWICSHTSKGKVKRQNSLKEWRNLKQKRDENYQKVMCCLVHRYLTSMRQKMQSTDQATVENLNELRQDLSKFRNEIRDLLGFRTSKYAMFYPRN

Results are given in words; binding and its absence hold for the method and conditions named. In cells and extracts the contact can be indirect. Some entries that bind do so weakly or less than the wild type.

The target of experiment [1] is STIM1 (endogenous, A549 cells) (human (endogenous in A549)) (UniProt Q13586). Put plainly: co-IP; A549 cells treated with 800 μM PQ for 0-60 min, or infected with shRNA-ORAI1 or shRNA-TRPC1 and treated with 800 μM PQ for 24 h; STIM1 precipitated, blots for ORAI1 and TRPC1.
In experiment [2] the target is Transient Receptor Potential Cation Channel Subfamily C Member 1 (TRPC1), endogenous in A549 cells (human (endogenous in A549)) (UniProt P48995). Put plainly: co-IP; A549 cells treated with 800 μM PQ for 0, 5, 15, 30, 60 min; lysate with TRPC1 antibody overnight, protein A/G beads 3 h at 4 °C; blots for STIM1 and ORAI1.

As to “Transient Receptor Potential Cation Channel Subfamily C Member 1 (TRPC1), endogenous in A549 cells (from UniProt P48995-2 1-759)”, the binding result in experiment [1] is “binds”.

Turning to “STIM1 (endogenous, A549 cells) (from UniProt Q13586 23-685)”, the binding entry in experiment [2] is given as “binds”.
